According to article PMC3411107:
Positions count from the first letter of the chain named. These are yes or no findings as the source states them, for the method shown. For part of these data: Binding calls can cover weak binding; strength is not graded here. Sequences can lack the tags named with a protein. For part of these data: In cells and extracts the contact can be indirect.

How the values were obtained:
REEP3-GFP (human) [1] = molecular target: T1, REEP3-GFP (human) (UniProt Q6NUK4); assay: co-IP; REEP-GFP proteins isolated from lysates (2.5 mg) of transfected HEK293 cells with GFP-Trap agarose (anti-GFP IP); co-purified endogenous RAB3GAP1, RAB3GAP2 and 14-3-3 detected by immunoblotting
T1 sequence (chain, phosphoSer152; pSer225): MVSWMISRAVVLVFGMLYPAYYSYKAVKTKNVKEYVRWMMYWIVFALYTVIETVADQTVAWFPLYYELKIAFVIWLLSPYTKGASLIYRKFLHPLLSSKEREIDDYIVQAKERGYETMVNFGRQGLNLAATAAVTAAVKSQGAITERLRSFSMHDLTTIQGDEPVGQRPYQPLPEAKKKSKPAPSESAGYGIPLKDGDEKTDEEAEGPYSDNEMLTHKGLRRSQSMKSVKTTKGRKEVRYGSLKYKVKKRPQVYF

[2] = molecular target: T2, REEP4-GFP (wild-type) (human) (UniProt Q9H6H4); assay: as above
T2 sequence (chain, phosphoserine at 152; phosphoserine at 224 in phorbol ester-stimulated cells): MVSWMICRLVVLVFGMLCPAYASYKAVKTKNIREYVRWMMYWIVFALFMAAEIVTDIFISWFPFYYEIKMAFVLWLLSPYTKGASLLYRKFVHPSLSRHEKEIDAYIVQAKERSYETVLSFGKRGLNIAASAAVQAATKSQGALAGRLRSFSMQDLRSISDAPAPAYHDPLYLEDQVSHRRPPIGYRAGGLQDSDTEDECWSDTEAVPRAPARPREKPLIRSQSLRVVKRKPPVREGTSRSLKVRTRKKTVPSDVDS

REEP2-GFP (human) = molecular target: T3, REEP2-GFP (human) (UniProt Q9BRK0); assay: as above
T3 sequence (chain, phosphorylated on a serine residue analogous to REEP4-Ser152): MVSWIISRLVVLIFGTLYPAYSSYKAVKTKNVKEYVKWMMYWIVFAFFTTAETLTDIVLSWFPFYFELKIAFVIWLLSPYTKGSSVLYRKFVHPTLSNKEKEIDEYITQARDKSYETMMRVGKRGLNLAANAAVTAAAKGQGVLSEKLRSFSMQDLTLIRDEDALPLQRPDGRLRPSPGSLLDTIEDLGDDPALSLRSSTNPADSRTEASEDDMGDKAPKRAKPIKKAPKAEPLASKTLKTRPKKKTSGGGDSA

REEP4-S152A-GFP (human) [3] = molecular target: T4, REEP4-S152A-GFP (human) (UniProt Q9H6H4); assay: condition: only cells not stimulated with phorbol ester; far-Western, overlay or dot blot; 14-3-3 Far-Western assay on REEP4-GFP proteins isolated (anti-GFP IP) from HEK293 cells that were not stimulated with phorbol ester; both purified
T4 sequence: T2 sequence (chain, phosphoserine at 152; phosphoserine at 224 in phorbol ester-stimulated cells) with S152A

REEP4-S152A-GFP (human) [4] = molecular target: T4, REEP4-S152A-GFP (human); assay: condition: only phorbol ester-stimulated cells incubated with Gö6983 (1 µM for 30 min); far-Western, overlay or dot blot; 14-3-3 Far-Western assay on REEP4-GFP proteins isolated (anti-GFP IP) from HEK293 cells incubated with Gö6983 (1 µM for 30 min) before PMA (100 ng/ml for 30 min); both purified
REEP3-GFP (human) [5] = molecular target: T1, REEP3-GFP (human); assay: far-Western, overlay or dot blot; 14-3-3 Far-Western assay on REEP-GFP proteins isolated (anti-GFP IP) from lysates of transfected HEK293 cells; cells serum-starved 8 h, then with or without EGF, PMA, forskolin and the inhibitors BI-D1870, Gö6983, Gö6976, H-89; both purified
[6] = molecular target: T2, REEP4-GFP (wild-type) (human); assay: as above
REEP4-S152A-GFP (human) [7] = molecular target: T4, REEP4-S152A-GFP (human); assay: as above
REEP1-GFP (human) = molecular target: T5, REEP1-GFP (human) (UniProt Q9H902); assay: as above
T5 sequence (chain, phosphoSer192): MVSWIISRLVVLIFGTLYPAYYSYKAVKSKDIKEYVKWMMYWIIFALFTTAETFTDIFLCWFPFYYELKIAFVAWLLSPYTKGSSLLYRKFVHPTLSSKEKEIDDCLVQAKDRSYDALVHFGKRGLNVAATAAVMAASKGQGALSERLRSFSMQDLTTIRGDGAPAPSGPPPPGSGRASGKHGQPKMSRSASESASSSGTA

[8] = molecular target: T6, Ser224Ala-substituted REEP4 (REEP4-GFP) (human) (UniProt Q9H6H4); assay: as above
T6 sequence: T2 sequence (chain, phosphoserine at 152; phosphoserine at 224 in phorbol ester-stimulated cells) with S224A

[9] = molecular target: T7, GST-tagged REEP3 (Y65-end), phosphorylated in vitro with PKCζ (human) (UniProt Q6NUK4); assay: far-Western, overlay or dot blot; GST-tagged REEP proteins (Y65-end) purified from E. coli, phosphorylated in vitro with PKCζ; 500 ng protein analysed by 14-3-3 Far-Western assay; both purified
T7 sequence (chain, phosphorylated in vitro with PKCζ; sites not stated): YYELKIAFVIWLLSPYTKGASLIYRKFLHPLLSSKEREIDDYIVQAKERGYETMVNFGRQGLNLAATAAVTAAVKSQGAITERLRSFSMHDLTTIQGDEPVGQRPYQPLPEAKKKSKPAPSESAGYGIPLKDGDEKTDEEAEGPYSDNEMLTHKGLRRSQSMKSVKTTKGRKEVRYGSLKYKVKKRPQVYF

[10] = molecular target: T8, GST-tagged REEP4 (Y65-end), phosphorylated in vitro with PKCζ (human) (UniProt Q9H6H4); assay: as above
T8 sequence (chain, phosphoserine at 224 (the PKCζ-phosphorylated site)): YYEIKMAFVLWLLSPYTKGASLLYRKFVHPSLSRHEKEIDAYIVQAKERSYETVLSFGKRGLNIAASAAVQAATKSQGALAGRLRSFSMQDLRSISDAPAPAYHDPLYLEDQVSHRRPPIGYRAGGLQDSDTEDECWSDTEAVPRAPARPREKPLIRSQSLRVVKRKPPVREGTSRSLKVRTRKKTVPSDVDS

[11] = molecular target: T9, GST-tagged REEP1 (Y65-end), treated with PKCζ in vitro (human) (UniProt Q9H902); assay: as above
T9 sequence (chain, incubated with PKCζ in vitro; sites not stated): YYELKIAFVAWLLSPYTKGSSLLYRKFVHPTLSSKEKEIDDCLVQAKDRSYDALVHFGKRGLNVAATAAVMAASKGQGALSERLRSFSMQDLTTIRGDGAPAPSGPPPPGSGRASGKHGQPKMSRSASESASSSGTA

[12] = molecular target: T10, GST-tagged REEP2 (Y65-end), treated with PKCζ in vitro (human) (UniProt Q9BRK0); assay: as above
T10 sequence (chain, incubated with PKCζ in vitro; sites not stated): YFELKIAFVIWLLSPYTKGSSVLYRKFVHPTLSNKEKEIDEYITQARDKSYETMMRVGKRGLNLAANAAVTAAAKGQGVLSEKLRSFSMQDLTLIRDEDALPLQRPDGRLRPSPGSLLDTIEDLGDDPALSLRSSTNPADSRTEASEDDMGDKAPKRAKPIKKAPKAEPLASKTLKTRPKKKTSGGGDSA

[13] = molecular target: T11, GST-tagged REEP4 (Y65-end) with Ser224 mutated to alanine, treated with PKCζ in vitro (human) (UniProt Q9H6H4); assay: as above
T11 sequence: T8 sequence (chain, phosphoserine at 224 (the PKCζ-phosphorylated site)) with S160A

binding (REEP3-GFP (human) [1]) | binding [2] | binding (REEP2-GFP (human)) | binding (REEP4-S152A-GFP (human) [3]) | binding (REEP4-S152A-GFP (human) [4]) | binding (REEP3-GFP (human) [5]) | binding [6] | binding (REEP4-S152A-GFP (human) [7]) | binding (REEP1-GFP (human)) | binding [8] | binding [9] | binding [10] | binding [11] | binding [12] | binding [13] | Substance
binds | binds | no binding | – | – | – | – | – | – | – | – | – | – | – | – | endogenous 14-3-3 (human (endogenous in HEK293))
– | – | – | no binding | no binding | binds | binds | binds | binds weakly | binds weakly | binds | binds | no binding | no binding | no binding | 14-3-3 (probe of the 14-3-3 Far-Western assay)
